Laboratory results from patent publication US11578300B2, “Test apparatus” (Hitachi High-Tech Corporation, priority 2014, dated 2023).
For at least one compound, name, drawing or mass did not settle the structure.

Test system: Enterococcus faecalis (ATCC29212)
Assay: susceptibility test with respect to levofloxacin by microscopic observation (bacteriological test apparatus)
Type: cell-based
Experimental: After the bacterial suspension is introduced into the culture plate 18, the bacterial suspension is in a state of being mixed with the culture liquid which is included in each of the wells, and the temperature controller 16 is set to a temperature of approximately 35° C. Culture is performed by performing incubation such that the temperature of each of the wells in the culture plate 18 is in the vicinity of the set temperature. Then, while performing the incubation, the bacteria included in each of the wells are monitored through the microscopic observation optical system. The microscopic observation (monitoring) may be performed for a set period of time from the start of the incubation till the end thereof by continuously monitoring the state of bacterial growth. Otherwise, a suitable time may be set and monitoring is performed every set time thereof so as to be able to be compared with the monitored result at the time of starting the incubation. In addition, similar to the bacteriological test apparatus in the related art, the turbidity of each of the wells may be measured through the turbidity measurement optical system while incubating the culture plate 18. The measured result may be compared with the monitored result of the microscopic observation optical system. FIGS. 10A to 13D are diagrams illustrating the results obtained by applying the present invention. FIGS. 10A to 13D illustrate images obtained by performing a susceptibility test with respect to levofloxacin of Enterococcus faecalis (ATCC29212) by using the bacteriological test apparatus 10 of the embodiment of the present invention. FIGS. 10A-10D illustrate images of the states of the bacteria in a Mueller-Hinton culture medium not containing levofloxacin, respectively captured after (a) zero minutes, (b) 90 minutes, (c) 150 minutes, and (d) 210 minutes from the start of culture. Similarly, FIGS. 11A-11D illustrate images of Enterococcus faecalis in the culture liquid containing levofloxacin of 0.5 μg/mL. FIGS. 12A-12D illustrate images thereof in the culture liquid containing 1.0 μg/mL. […]

SMILES: C[C@H]1COc2c(N3CCN(C)CC3)c(F)cc3c(=O)c(C(=O)O)cn1c23 [levofloxacin]
- areas of the Enterococcus faecalis in the images (levofloxacin 0.5 μg/mL, FIG. 14 graph (ii)): increased with the lapse of time
- areas of the Enterococcus faecalis in the images (levofloxacin 1 μg/mL, after approximately 150 minutes, FIG. 14 graph (iii)): did not increase thereafter
- areas of the Enterococcus faecalis in the images (levofloxacin 2 μg/mL, after approximately 150 minutes, FIG. 14 graph (iv)): did not increase thereafter
